Some of the results follow.

For the test, the target named is T1, OsSMF1 (Oryza sativa, UniProt Q6ZLB0 1-436).
T1 sequence: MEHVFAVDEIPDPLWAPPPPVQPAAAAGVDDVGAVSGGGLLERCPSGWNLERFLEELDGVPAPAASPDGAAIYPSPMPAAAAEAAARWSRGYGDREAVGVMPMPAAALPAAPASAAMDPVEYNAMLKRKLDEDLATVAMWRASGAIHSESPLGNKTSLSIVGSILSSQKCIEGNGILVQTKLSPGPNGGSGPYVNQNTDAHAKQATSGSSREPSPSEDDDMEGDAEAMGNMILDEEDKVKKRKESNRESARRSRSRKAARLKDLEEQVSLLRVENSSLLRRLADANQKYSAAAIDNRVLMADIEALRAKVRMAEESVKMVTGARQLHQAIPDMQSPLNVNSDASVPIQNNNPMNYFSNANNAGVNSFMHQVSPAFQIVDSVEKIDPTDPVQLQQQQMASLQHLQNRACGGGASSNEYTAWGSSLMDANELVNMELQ
Kind of test: protein-binding microarray (RPBM); PBS, 2% BSA, 51.3 ng/ul salmon testes DNA, 50 uM zinc acetate, 200 nM TF, 25 C, 1 h; high values mean tight binding. Conditions: protein: recombinant; tags: N-terminal polyhistidine and DsRed monomer fusion (pET32a); chain copies: 2; label: CyDye5-dUTP incorporated in the synthesized complementary strand; 3' TTTTT single-stranded linker to array surface; dsDNA, one strand shown. Put shortly: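 A custom Agilent array was converted to double-stranded form by primer extension with Cy5-dUTP and blocked with 2% BSA. Protein at 200 nM in PBS with 2% BSA, salmon testes DNA and 50 µM zinc acetate was applied for 1 h at 25 °C, followed by washing. The proteins were polyhistidine–DsRed N-terminal fusions of transcription factors, expressed in E. coli BL21-CodonPlus and Ni–NTA-purified. The binding signal is per-feature fluorescence intensity (arbitrary units) from an Axon 4000B scanner.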
On to “GCTAATCCGGGAAGAAGAAGAAGAAGAAGCAGGGATTGATCGGAGTCACCTAGTGCAG”, for which the binding signal is 5310 fluorescence intensity (a.u.).
Take “CTGGTAGGATAAAACGCACGGGTGAAAACACGGAAAATGGCGGAGTCACCTAGTGCAG”: the binding signal was 30600 fluorescence intensity (a.u.).
For “TAATCTCTCTTTTGCTTTCTTCTGTCCCTCGGGGTGTCTCCGGAGTCACCTAGTGCAG”, the binding signal is 20900 fluorescence intensity (a.u.).
The figure for “TTTTAATTCAAATGCCACCTAAGCGCCACGTCAACCCTATCGGAGTCACCTAGTGCAG” is 23500 fluorescence intensity (a.u.); for “CCCATGAACACACACATACACATCCTACTCAATGGGCATCCGGAGTCACCTAGTGCAG” it is 3710 fluorescence intensity (a.u.).
On to “AGTAATTAAAATTTAAGAGGCAAAATTACGTGTGAATTTGCGGAGTCACCTAGTGCAG”, for which the binding signal is 4130 fluorescence intensity (a.u.).
Take “ACATTTTCACGAGTCTTTTCACTTCCGCCCGCGCCCAAGTCGGAGTCACCTAGTGCAG”: the binding signal is 3140 fluorescence intensity (a.u.).
The figure for “CAGGCGGCCGCCTCCTCCTCCGCCGCCTCCGCCGCTCCCGCGGAGTCACCTAGTGCAG” is 3140 fluorescence intensity (a.u.); for “CGCCGCGGTGGTCGGACTTGTCGCGCGAGCTCGGGATCGACGGAGTCACCTAGTGCAG” it is 4780 fluorescence intensity (a.u.); for “GACCTCCTCGTCGATTCTTTGCGCATGCACCATCCCTGGGCGGAGTCACCTAGTGCAG” it is 3470 fluorescence intensity (a.u.).
With “TCAACCGTTTTCCCAAAGCTGACGCGATGCGGTACGACCTCGGAGTCACCTAGTGCAG”, the binding signal is 5040 fluorescence intensity (a.u.).
For the sequence “GTTGAGCTCCCGGTATATCTTGCACAGCTCGGTGGTGCGCCGGAGTCACCTAGTGCAG”, the binding signal was 3210 fluorescence intensity (a.u.).
Take “CGCTATTACTTTTGTACCTATATAAGTGAGGTCAGCGCCACGGAGTCACCTAGTGCAG”: the binding signal is 3220 fluorescence intensity (a.u.).
The figure for “GAGATCGATGGCAGGAGTTGGGGAGAAGATGATGGTTAGCCGGAGTCACCTAGTGCAG” is 3540 fluorescence intensity (a.u.).
The figure for “GGGCTCCATAATAGAGTGCCACACTAGCATGTTACGATATCGGAGTCACCTAGTGCAG” is 3510 fluorescence intensity (a.u.); for “GCCTACCTTCTGGTTCGATCTTCTCCCGCCACGTTCTGCACGGAGTCACCTAGTGCAG” it is 4310 fluorescence intensity (a.u.); for “GATGCGCACCGCCACGCACTTCATTAATTTCATGTCTCCTCGGAGTCACCTAGTGCAG” it is 7170 fluorescence intensity (a.u.).
The figure for “AGACACCAACAAGGTTGGCAGCAAACCAGAACAAATTAACCGGAGTCACCTAGTGCAG” is 24700 fluorescence intensity (a.u.); for “AGCGTGTCCTCCTGGTTGCTATTGACACGCTGGCAGAGCCCGGAGTCACCTAGTGCAG” it is 7800 fluorescence intensity (a.u.).
“AAATTCATGCACTTGCCACGTGCAATCCCAACTATACTGTCGGAGTCACCTAGTGCAG”: the binding signal is 4230 fluorescence intensity (a.u.).
The figure for “GTTGCATGAAGACCCATTCCTTGGTGACGTGATGTTAGCACGGAGTCACCTAGTGCAG” is 3830 fluorescence intensity (a.u.).
The figure for “CTACTGTCATGCTTCCTTGTCACATTACTACATCGTCGTTCGGAGTCACCTAGTGCAG” is 3970 fluorescence intensity (a.u.); for “GTCCTCTACAGTACTGTCTTCTGACTTAGTGCTTTGAGTGCGGAGTCACCTAGTGCAG” it is 3680 fluorescence intensity (a.u.).

Values taken from paper PMC7819943, “Rice protein-binding microarrays: a tool to detect cis-acting elements near promoter regions in rice”.
